These are yes or no findings as the source states them, for the method shown. Some entries that bind do so weakly or less than the wild type.
Tests used:
[1] = molecular target: human GPVI extracellular region-human Fc fusion protein (hGPVI-hFc) (human); test: ELISA on immobilised hGPVI-hFc, anti-human mu chain detection
[2] = molecular target: human platelet membrane glycoprotein VI (GPVI) on human platelets (human) (UniProt Q9HCN6); test: flow cytometry on platelets, 3-4 µg/mL

Chains of the proteins cited; added tags and fusions are not shown. Lines headed by an entry give the natural chain unless they say otherwise; changes in a name come on top. Residues count along the entry.
UniProt Q9HCN6, residues 21-339: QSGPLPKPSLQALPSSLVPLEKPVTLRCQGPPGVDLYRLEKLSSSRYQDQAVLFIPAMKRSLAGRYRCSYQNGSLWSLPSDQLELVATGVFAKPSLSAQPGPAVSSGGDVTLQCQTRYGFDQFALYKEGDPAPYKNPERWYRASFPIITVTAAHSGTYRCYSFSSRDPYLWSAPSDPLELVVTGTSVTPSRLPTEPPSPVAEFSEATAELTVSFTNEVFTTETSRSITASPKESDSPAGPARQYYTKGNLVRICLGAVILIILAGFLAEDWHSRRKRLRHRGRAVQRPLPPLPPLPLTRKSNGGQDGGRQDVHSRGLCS
UniProt P01591: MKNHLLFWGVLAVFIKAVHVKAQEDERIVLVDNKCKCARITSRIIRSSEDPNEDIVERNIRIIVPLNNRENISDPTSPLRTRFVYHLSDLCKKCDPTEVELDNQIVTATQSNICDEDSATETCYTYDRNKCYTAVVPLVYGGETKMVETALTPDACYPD

“cF1232-37-2 (IgM) (mouse/human chimeric IgM-type F1232-37-2) (from UniProt P01591 23-159) (antibody)” was tested, and the binding [1] was “binds” and the binding [2] was “binds”.

Source: patent publication US20110217318A1
